Source: article PMC12724251
These are yes or no findings as the source states them, for the method shown. Binding seen in cells or lysates may run through a third protein. Some entries that bind do so weakly or less than the wild type.

Protein sequences, listed by entry. Tags and fused reporters are not part of them.
UniProt P11142: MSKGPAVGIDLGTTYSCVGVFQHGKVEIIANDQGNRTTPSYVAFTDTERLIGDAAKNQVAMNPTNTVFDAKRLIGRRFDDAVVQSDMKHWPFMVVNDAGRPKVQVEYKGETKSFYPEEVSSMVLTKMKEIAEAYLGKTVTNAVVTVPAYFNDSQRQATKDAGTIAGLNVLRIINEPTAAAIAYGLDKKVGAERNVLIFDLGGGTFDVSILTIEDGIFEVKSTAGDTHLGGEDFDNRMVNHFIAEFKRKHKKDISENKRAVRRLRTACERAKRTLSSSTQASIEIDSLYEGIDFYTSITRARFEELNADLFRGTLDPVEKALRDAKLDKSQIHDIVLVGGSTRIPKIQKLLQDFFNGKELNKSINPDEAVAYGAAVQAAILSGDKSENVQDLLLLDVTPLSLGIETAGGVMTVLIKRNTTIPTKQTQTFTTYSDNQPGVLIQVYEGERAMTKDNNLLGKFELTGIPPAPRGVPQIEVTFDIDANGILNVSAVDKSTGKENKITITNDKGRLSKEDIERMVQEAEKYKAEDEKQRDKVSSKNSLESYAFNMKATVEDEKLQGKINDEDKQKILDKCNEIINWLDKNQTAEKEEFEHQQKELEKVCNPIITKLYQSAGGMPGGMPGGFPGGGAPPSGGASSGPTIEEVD
UniProt P25963: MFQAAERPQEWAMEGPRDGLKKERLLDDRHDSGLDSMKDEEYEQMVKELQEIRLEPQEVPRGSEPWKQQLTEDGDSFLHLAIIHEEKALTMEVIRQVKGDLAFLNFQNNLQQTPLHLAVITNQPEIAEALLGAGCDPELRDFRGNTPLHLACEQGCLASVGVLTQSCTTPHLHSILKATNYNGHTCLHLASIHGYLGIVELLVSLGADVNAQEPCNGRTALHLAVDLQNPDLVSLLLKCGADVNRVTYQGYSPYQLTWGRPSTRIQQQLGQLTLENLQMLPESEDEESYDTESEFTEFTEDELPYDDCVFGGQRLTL

How the values were obtained:
[1] = biological target: Hsc70, A549 cells (human (endogenous in A549)) (UniProt P11142); experiment: co-IP; A549 cell lysates, immunoprecipitated with Hsc70 antibody, Western blot; cells ARV-infected (MOI 10, 24 h) (Fig. 9B)
[2] = biological target: T1, CCT2 (subunit of TRiC), A549 cells (human (endogenous in A549)) (UniProt P78371); experiment: co-IP; A549 cell lysates, immunoprecipitated with CCT2 antibody, Western blot; cells ARV-infected (MOI 10, 24 h), with or without CK2 or Hsc70 shRNA (Fig. 9A)
T1 sequence: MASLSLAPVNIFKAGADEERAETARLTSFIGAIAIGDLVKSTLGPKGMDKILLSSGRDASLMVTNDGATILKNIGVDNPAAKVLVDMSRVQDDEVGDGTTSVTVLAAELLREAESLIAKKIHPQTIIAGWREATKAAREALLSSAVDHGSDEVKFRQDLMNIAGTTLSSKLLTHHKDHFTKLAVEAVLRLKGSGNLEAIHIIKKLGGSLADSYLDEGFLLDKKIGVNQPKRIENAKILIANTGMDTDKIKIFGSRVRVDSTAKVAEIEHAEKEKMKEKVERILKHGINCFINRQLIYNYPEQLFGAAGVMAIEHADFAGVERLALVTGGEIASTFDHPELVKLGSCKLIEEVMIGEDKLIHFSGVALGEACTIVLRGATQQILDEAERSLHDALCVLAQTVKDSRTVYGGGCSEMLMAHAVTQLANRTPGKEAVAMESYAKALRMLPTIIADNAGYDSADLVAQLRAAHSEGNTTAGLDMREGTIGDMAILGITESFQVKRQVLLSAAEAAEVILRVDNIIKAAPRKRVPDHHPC

IκBα, A549 cells (from UniProt P25963 1-317)
binding [1]: binds | binding [2]: binds
